According to paper PMC4705694:
These are yes or no findings as the source states them, for the method shown. Some binding calls cover weakened binding; strength is not graded here.

The chains behind the UniProt entries cited, without tags or fusion partners. Where a name states a change or a piece, a line headed by the entry shows the natural chain unless it says otherwise.
UniProt P0ACB0: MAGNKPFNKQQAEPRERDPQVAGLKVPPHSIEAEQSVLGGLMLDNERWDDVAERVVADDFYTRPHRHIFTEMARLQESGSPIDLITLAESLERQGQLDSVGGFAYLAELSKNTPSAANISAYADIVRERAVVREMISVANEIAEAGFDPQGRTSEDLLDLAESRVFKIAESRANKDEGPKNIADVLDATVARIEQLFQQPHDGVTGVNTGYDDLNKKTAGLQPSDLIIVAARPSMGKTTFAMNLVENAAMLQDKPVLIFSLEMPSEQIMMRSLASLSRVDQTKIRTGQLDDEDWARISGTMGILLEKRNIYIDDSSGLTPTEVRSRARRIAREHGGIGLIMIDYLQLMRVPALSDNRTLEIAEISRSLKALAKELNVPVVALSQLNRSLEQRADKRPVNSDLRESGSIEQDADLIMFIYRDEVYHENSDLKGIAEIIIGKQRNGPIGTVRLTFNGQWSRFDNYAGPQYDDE

Legend:
DnaB (E. coli) [1] = biological target: DnaB (E. coli) (UniProt P0ACB0); assay: HDX-MS; DnaB, DnaC or the isolated BC complex in Buffer A with ATP or ATPγS diluted 10-fold into D2O buffer at 20°C; quench with formic acid, online pepsin digestion, ESI-MS; both purified
DnaB D291A (E. coli) = DnaB D291A (E. coli) (UniProt P0ACB0); assay: ELISA; ELISA that measures the direct interaction of DnaB with DnaC (Supplementary Figure S4C); format not shown
DnaB R296A (E. coli) = DnaB R296A (E. coli) (UniProt P0ACB0); assay: as above
DnaB (E. coli) [2] = biological target: DnaB (E. coli) (UniProt P0ACB0); assay: as above
DnaB K431A (E. coli) = DnaB K431A (E. coli) (UniProt P0ACB0); assay: as above

Measured: binding

B1: DnaC (protein, UniProt P0AEF0 1-245)
chain: MKNVGDLMQRLQKMMPAHIKPAFKTGEELLAWQKEQGAIRSAALERENRAMKMQRTFNRSGIRPLHQNCSFENYRVECEGQMNALSKARQYVEEFDGNIASFIFSGKPGTGKNHLAAAICNELLLRGKSVLIITVADIMSAMKDTFRNSGTSEEQLLNDLSNVDLLVIDEIGVQTESKYEKVIINQIVDRRSSSKRPTGMLTNSNMEEMTKLLGERVMDRMRLGNSLWVIFNWDSYRSRVTGKEY
binds: all assays above
